Data: doi:10.1101/2022.04.29.490041
These are yes or no findings as the source states them, for the method shown. In cells and extracts the contact can be indirect. Some results given as binding are weak or reduced against the parent protein; the word gives no strength. Where a sequence is shown, tags or fusion partners need not be part of it.

Key:
Test in all cases: co-IP
[1] = biological target: T1, NSF:GFP (N-ethylmaleimide-sensitive factor, wild-type form, GFP-tagged) (Arabidopsis thaliana) (UniProt Q9M0Y8)
T1 sequence: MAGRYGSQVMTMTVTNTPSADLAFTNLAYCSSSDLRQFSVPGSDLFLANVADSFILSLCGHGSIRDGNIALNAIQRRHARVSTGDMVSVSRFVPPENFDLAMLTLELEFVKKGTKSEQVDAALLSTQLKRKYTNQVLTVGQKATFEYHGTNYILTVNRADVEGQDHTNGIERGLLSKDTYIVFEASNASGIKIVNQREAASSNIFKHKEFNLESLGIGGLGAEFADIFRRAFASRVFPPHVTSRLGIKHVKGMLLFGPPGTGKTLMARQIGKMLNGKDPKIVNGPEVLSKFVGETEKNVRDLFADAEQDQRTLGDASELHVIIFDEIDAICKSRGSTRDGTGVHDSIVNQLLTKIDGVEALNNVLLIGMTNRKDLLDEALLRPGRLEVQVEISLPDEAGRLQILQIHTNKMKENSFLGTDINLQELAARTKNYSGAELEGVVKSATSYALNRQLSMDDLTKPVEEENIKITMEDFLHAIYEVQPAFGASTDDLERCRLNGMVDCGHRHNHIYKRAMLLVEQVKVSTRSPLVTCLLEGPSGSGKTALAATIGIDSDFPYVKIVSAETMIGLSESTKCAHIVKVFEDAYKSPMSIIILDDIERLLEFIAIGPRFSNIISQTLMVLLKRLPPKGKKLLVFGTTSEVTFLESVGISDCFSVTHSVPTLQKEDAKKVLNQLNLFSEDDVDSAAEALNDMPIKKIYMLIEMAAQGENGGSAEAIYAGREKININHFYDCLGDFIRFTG

[2] = biological target: T2, NSF_(E326Q):GFP (dominant-negative variant of NSF, GFP-tagged) (Arabidopsis thaliana) (UniProt Q9M0Y8)
T2 sequence: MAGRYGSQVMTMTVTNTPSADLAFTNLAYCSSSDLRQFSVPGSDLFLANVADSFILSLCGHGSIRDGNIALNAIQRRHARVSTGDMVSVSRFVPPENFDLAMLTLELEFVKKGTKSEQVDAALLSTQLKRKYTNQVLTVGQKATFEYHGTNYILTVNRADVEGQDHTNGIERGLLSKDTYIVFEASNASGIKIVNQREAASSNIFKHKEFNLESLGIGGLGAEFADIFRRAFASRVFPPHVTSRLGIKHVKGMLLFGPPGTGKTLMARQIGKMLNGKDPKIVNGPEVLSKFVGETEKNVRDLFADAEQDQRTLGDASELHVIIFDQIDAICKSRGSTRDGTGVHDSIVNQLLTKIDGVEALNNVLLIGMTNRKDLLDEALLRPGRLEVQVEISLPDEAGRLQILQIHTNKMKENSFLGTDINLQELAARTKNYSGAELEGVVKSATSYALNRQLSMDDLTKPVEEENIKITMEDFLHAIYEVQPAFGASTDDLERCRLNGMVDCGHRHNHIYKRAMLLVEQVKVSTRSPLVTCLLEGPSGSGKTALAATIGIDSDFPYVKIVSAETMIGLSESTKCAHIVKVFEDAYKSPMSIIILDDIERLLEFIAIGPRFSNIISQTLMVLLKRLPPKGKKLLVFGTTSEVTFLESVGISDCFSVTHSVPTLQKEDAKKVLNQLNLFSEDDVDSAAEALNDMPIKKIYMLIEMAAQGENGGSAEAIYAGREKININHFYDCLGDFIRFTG

[3] = biological target: T3, mRFP:αSNAP2 (alpha-soluble NSF-associated protein 2, wild-type form, RFP-tagged) (Arabidopsis thaliana) (UniProt Q9SPE6)
T3 sequence: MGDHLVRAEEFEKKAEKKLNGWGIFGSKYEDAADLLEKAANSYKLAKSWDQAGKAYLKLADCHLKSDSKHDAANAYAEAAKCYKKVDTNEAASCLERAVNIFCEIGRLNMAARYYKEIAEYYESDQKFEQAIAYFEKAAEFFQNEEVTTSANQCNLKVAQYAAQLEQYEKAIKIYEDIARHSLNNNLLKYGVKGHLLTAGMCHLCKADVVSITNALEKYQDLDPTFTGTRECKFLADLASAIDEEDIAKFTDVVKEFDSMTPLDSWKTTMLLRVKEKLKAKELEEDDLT

[4] = biological target: T4, mRFP:αSNAP2_(L288A) (dominant-negative variant of αSNAP2, RFP-tagged) (Arabidopsis thaliana) (UniProt Q9SPE6)
T4 sequence: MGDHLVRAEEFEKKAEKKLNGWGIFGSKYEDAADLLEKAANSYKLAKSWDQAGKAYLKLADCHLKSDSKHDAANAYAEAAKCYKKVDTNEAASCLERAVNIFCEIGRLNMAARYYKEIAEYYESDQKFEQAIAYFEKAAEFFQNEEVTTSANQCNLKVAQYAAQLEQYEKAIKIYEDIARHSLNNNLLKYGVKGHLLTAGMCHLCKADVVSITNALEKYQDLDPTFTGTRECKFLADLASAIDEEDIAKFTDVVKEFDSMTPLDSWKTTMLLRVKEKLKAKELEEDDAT

Measured: binding

B1: SYP31 (Q-SNARE, Golgi) (protein, UniProt Q9FFK1 1-336)
chain: MGSTFRDRTVELHSLSQTLKKIGAIPSVHQDEDDPASSKRSSPGSEFNKKASRIGLGIKETSQKITRLAKLAKQSTIFNDRTVEIQELTVLIRNDITGLNMALSDLQTLQNMELADGNYSQDQVGHYTAVCDDLKTRLMGATKQLQDVLTTRSENMKAHENRKQLFSTKNAVDSPPQNNAKSVPEPPPWSSSSNPFGNLQQPLLPPLNTGAPPGSQLRRRSAIENAPSQQMEMSLLQQTVPKQENYSQSRAVALHSVESRITELSGIFPQLATMVTQQGELAIRIDDNMDESLVNVEGARSALLQHLTRISSNRWLMMKIFAVIILFLIVFLFFVA
binds: all assays above

B2: SYP61 (Q-SNARE, TGN) (protein, UniProt Q946Y7 1-245)
chain: MSSAQDPFYIVKEEIQDSIDKLQSTFHKWERISPDMGDQAHVAKELVATCGSIEWQVDELEKAITVAAKDPSWYGIDEAELEKRRRWTSNARTQVRNVKSGVLAGKVSSGAGHASEVRRELMRMPNSGEASRYDQYGGRDDDGFVQSESDRQMLLIKQQDEELDELSKSVQRIGGVGLTIHDELVAQERIIDELDTEMDSTKNRLEFVQKKVGMVMKKAGAKGQMMMICFLLVLFIILFVLVFLT
binds: all assays above

B3: SYP21 (Q-SNARE, MVB, vacuole) (protein, UniProt Q39233 1-279)
chain: MSFQDLEAGTRSPAPNRFTGGRQQRPSSRGDPSQEVAAGIFRISTAVNSFFRLVNSIGTPKDTLELRDKLQKTRLQISELVKNTSAKLKEASEADLHGSASQIKKIADAKLAKDFQSVLKEFQKAQRLAAEREITYTPVVTKEIPTSYNAPELDTESLRISQQQALLLQSRRQEVVFLDNEITFNEAIIEEREQGIREIEDQIRDVNGMFKDLALMVNHQGNIVDDISSNLDNSHAATTQATVQLRKAAKTQRSNSSLTCLLILIFGIVLLIVIIVVLV
binds: all assays above

B4: SYP132 (Qa-SNARE, mainly plasma membrane) (protein, UniProt Q8VZU2 1-304)
chain: MNDLLKGSFELPRGQSSREGDVELGEQQGGDQGLEDFFKKVQVIDKQYDKLDKLLKKLQASHEESKSVTKAPAMKAIKKTMEKDVDEVGSIARFIKGKLEELDRENLANRQKPGCAKGSGVDRSRTATTLSLKKKLKDKMAEFQVLRENIQQEYRDVVDRRVYTVTGERADEDTIDELIETGNSEQIFQKAIQEQGRGQVMDTLAEIQERHDAVRDLEKKLLDLQQIFLDMAVLVDAQGEMLDNIESQVSSAVDHVQSGNTALQRAKSLQKNSRKWMCIAIIILLIVVAVIVVGVLKPWKNKSA
binds: all assays above

B5: SNAP33 (Qbc-SNARE) (protein, UniProt Q9S7P9 1-300)
chain: MFGLRKSPANLPKHNSVDLKSSKPNPFDSDDESDNKHTLNPSKRTTSEPSLADMTNPFGGERVQKGDSSSSKQSLFSNSKYQYKNNFRDSGGIENQSVQELEGYAVYKAEETTKSVQGCLKVAEDIRSDATRTLVMLHDQGEQITRTHHKAVEIDHDLSRGEKLLGSLGGMFSKTWKPKKTRPINGPVVTRDDSPTRRVNHLEKREKLGLNSAPRGQSRTREPLPESADAYQRVEMEKAKQDDGLSDLSDILGELKNMAVDMGSEIEKQNKGLDHLHDDVDELNFRVQQSNQRGRRLLGK
binds: all assays above

B6: NPSN11 (Qb-SNARE) (protein, UniProt Q944A9 1-265)
chain: MDPISAVSEELAEIEGQINDIFRALSNGFQKLEKIKDANRQSRQLEELTDKMRDCKSLIKDFDREIKSLESGNDASTNRMLNDRRQSMVKELNSYVALKKKYSSNLASNNKRVDLFDGPGEEHMEENVLLASNMSNQELMDKGNSMMDDTDQAIERGKKIVQETINVGTDTSAALKAQTEQMSRVVNELDSIHFSLKKASKLVKEIGRQVATDKCIMAFLFLIVIGVIAIIIVKIVNPNNKDIRDIPGVGLAPPAMNRRLLWNHY
binds: all assays above

B7: SYP71 (Qc-SNARE) (protein, UniProt Q9SF29 1-266)
chain: MTVIDILTRVDSICKKYDKYDVDKQREANISGDDAFARLYGAFETQIETALEKAELVTKEKNRAAAVAMNAEIRRTKARLSEEVPKLQRLAVKRVKGLTTEELAARNDLVLALPARIEAIPDGTAGGPKSTSAWTPSSTTSRPDIKFDSDGRFDDDYFQESNESSQFRQEYEMRKIKQEQGLDMISEGLDALKNMASDMNEELDRQVPLMDEIDTKVDRATSDLKNTNVRLKDTVNQLRSSRNFCIDIVLLCIVLGIAAYLYNVLK
binds: all assays above
